In PMC4957761:
Results are given in words; binding and its absence hold for the method and conditions named. Binding seen in cells or lysates may run through a third protein.

Protein sequences, listed by entry. Tags and fused reporters are not part of them. Residues count along the entry.
UniProt P15454, residues 2-187: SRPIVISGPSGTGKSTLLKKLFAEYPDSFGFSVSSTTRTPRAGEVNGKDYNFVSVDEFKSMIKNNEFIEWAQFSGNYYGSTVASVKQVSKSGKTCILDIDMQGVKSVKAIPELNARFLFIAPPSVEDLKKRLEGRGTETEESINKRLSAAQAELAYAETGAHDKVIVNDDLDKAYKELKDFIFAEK

Molecular target: Guk1-GFP (S. cerevisiae) (UniProt P15454)
Experiment: co-IP; GFP-Trap agarose beads, 2 h at 4°C, on lysates of Gim3-TAP yeast cells grown at 25°C; native lysis buffer (20 mM HEPES pH 7.5, 0.5% NP-40, 200 mM NaCl, 1 mM EDTA, 10 mM iodoacetamide); blot with anti-TAP

binding: no binding
B1: Gim3-TAP (protein, UniProt P53900 1-129)
chain: MELLPQGQRNNTQVTFEDQQKINEFSKLIMRKDAIAQELSLQREEKEYLDDVSLEIELIDEDEPVQYKVGDLFIFMKQSKVTAQLEKDAERLDNKIETLEDKQRDIDSRLDALKAILYAKFGDNINLER
